For one substance, binding results are on record in publication PMC8298602, “14-3-3-protein regulates Nedd4-2 by modulating interactions between HECT and WW domains” (Communications Biology, 2021).

Sequences of proteins named here, by UniProt entry; tags and fusion partners are left off. Residues count along the entry.
UniProt Q96PU5, residues 335-455: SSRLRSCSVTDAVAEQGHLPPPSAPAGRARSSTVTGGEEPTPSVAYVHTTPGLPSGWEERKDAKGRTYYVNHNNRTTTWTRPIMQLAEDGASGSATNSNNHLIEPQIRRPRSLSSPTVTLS

These are yes or no findings as the source states them, for the method shown.

The target in this assay is phosphorylated Nedd4-2^335–455 (human) (UniProt Q96PU5). Kind of assay: AUC; sedimentation velocity, 20 °C, 20 mM Tris-HCl pH 7.5, 150 mM NaCl, 1 mM TCEP; 1 μM 14-3-3η with Nedd4-2^335–455 variants (0.05 – 5 μM); apparent KD, sw isotherm fitted with A + B ⇌ AB, 14-3-3η dimer + one Nedd4-2 molecule; both purified.

As for “phosphorylated Nedd4-2^335–455 (from UniProt Q96PU5 335-455) (domain or fragment)”, the binding entry is on record as “no binding”.
